These are yes or no findings as the source states them, for the method shown. Binding seen in cells or lysates may run through a third protein. Some entries that bind do so weakly or less than the wild type. Tags and fused reporters may be left off the sequences shown.
Tests used:
[1] = molecular target: T1, GST-RI (ribonuclease inhibitor fused to GST) (human) (UniProt P13489); experiment: pull-down; GST-RI held on glutathione-Sepharose 4B beads; extracts of transfected EJ or HEK293 cells added; 3 h at 4 °C with rotation; washed with ice-cold PBS; Western blot; only the target purified
T1 sequence: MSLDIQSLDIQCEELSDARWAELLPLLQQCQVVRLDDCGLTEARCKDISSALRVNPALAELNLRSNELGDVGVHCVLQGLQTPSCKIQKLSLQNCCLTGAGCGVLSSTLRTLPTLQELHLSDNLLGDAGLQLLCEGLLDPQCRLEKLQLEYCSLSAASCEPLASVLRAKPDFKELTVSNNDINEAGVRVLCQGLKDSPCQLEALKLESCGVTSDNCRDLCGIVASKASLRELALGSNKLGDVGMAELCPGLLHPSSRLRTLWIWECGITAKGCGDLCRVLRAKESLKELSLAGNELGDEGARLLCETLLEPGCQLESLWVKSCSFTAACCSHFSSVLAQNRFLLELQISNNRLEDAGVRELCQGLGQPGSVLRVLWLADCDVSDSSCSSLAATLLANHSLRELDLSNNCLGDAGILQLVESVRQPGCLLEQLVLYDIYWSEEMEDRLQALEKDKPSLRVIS

[2] = molecular target: T2, myc-RI (ribonuclease inhibitor from pcDNA3.1(-)-myc-RI) (human) (UniProt P13489); experiment: co-IP; EJ and HEK293 cells co-transfected with pCMV-3xFlag-ILK and pcDNA3.1(-)-myc-RI; precipitated with anti-Myc antibody and protein A-agarose; blotted with anti-RI or anti-ILK
T2 sequence: T1 sequence

[3] = molecular target: T2, myc-RI (ribonuclease inhibitor from pcDNA3.1(-)-myc-RI) (human); experiment: FRET or BRET; EJ cells transfected with pCMV-3xFlag-ILK and pcDNA3.1(-)-myc-RI; immunofluorescence with Alexa Fluor 488 (ILK) and cy3 (RI) secondary antibodies; acceptor photobleaching of cy3 with the 543 nm laser

endogenous ILK (integrin-linked kinase) (from UniProt Q13418-1 1-452)
binding [1]: binds

Flag-ILK (integrin-linked kinase from pCMV-3xFlag-ILK) (from UniProt Q13418-1 1-452)
binding [2]: binds | binding [1]: binds | binding [3]: binds

— paper PMC5006283
